According to the supplement of paper PMC10849652:
This is one part of the list.

Sequences of proteins named here, by UniProt entry; tags and fusion partners are left off. A change or cut given only in a name is not applied to a line headed by its entry.
UniProt P16152: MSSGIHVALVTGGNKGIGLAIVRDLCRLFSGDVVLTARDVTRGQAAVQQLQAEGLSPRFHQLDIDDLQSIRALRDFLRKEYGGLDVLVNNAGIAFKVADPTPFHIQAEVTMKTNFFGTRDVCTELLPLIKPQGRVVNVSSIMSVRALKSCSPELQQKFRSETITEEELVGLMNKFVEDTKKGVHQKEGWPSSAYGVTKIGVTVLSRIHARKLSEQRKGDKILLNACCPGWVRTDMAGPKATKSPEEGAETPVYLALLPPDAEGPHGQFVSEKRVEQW
UniProt Q9Y2V2: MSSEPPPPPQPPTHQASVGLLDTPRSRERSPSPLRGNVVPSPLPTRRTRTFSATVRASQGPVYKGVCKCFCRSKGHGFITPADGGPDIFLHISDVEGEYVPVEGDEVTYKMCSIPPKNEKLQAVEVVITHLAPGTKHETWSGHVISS
UniProt Q7Z3E2: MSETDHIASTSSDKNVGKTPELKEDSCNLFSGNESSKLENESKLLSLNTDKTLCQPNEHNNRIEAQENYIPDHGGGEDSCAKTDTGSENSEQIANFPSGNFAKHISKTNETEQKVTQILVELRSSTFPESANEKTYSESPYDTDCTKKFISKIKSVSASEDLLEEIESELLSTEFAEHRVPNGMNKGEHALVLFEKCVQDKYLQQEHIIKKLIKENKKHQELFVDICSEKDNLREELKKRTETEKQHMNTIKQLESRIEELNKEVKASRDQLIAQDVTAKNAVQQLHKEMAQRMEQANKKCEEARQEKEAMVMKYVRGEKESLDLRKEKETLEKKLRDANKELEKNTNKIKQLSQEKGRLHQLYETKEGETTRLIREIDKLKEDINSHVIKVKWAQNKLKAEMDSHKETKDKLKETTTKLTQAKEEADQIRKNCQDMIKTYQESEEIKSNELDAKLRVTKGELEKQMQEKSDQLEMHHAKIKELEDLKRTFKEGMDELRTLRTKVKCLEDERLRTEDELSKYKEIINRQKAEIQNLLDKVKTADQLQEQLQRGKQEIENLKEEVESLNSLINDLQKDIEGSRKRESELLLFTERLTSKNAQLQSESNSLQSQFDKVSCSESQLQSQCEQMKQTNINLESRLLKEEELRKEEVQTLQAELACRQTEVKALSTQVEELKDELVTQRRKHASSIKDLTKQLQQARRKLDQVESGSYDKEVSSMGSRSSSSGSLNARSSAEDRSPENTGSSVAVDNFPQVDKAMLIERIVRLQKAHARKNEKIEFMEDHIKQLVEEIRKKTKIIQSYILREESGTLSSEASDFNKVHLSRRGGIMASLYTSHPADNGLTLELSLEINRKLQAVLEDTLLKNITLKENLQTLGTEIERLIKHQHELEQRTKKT
UniProt Q567U6, whole entry, looked up: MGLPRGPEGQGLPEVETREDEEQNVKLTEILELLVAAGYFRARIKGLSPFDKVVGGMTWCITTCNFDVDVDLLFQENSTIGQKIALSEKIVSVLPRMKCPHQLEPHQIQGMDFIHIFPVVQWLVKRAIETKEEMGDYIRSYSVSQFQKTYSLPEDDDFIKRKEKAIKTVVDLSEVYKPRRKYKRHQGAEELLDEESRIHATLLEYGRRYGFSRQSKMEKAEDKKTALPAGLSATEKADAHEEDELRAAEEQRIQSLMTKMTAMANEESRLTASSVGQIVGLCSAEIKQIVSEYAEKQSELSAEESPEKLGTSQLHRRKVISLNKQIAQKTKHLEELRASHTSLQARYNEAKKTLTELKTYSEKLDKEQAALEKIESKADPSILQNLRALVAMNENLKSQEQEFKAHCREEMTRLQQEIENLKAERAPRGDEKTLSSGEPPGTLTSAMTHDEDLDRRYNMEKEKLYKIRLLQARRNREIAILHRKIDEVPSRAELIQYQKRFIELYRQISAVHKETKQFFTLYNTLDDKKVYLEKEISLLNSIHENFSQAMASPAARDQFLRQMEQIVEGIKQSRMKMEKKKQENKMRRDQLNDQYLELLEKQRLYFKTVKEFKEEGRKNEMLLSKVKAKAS
UniProt O75909: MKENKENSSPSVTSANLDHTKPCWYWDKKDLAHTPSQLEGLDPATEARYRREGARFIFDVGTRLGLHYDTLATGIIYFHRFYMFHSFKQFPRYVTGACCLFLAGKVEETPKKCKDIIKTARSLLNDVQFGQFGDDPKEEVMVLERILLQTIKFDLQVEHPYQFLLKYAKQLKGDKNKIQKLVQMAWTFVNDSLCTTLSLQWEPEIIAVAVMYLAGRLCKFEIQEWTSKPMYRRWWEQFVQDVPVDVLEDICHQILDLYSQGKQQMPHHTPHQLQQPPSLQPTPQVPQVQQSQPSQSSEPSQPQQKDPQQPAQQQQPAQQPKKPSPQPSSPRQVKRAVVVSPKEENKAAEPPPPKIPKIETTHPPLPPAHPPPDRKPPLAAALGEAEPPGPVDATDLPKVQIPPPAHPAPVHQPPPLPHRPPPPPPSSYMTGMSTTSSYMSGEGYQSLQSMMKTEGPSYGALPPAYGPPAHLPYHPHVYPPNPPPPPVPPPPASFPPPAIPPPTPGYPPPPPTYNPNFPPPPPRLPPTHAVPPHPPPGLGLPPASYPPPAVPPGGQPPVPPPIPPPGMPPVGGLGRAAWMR
UniProt Q3V6T2: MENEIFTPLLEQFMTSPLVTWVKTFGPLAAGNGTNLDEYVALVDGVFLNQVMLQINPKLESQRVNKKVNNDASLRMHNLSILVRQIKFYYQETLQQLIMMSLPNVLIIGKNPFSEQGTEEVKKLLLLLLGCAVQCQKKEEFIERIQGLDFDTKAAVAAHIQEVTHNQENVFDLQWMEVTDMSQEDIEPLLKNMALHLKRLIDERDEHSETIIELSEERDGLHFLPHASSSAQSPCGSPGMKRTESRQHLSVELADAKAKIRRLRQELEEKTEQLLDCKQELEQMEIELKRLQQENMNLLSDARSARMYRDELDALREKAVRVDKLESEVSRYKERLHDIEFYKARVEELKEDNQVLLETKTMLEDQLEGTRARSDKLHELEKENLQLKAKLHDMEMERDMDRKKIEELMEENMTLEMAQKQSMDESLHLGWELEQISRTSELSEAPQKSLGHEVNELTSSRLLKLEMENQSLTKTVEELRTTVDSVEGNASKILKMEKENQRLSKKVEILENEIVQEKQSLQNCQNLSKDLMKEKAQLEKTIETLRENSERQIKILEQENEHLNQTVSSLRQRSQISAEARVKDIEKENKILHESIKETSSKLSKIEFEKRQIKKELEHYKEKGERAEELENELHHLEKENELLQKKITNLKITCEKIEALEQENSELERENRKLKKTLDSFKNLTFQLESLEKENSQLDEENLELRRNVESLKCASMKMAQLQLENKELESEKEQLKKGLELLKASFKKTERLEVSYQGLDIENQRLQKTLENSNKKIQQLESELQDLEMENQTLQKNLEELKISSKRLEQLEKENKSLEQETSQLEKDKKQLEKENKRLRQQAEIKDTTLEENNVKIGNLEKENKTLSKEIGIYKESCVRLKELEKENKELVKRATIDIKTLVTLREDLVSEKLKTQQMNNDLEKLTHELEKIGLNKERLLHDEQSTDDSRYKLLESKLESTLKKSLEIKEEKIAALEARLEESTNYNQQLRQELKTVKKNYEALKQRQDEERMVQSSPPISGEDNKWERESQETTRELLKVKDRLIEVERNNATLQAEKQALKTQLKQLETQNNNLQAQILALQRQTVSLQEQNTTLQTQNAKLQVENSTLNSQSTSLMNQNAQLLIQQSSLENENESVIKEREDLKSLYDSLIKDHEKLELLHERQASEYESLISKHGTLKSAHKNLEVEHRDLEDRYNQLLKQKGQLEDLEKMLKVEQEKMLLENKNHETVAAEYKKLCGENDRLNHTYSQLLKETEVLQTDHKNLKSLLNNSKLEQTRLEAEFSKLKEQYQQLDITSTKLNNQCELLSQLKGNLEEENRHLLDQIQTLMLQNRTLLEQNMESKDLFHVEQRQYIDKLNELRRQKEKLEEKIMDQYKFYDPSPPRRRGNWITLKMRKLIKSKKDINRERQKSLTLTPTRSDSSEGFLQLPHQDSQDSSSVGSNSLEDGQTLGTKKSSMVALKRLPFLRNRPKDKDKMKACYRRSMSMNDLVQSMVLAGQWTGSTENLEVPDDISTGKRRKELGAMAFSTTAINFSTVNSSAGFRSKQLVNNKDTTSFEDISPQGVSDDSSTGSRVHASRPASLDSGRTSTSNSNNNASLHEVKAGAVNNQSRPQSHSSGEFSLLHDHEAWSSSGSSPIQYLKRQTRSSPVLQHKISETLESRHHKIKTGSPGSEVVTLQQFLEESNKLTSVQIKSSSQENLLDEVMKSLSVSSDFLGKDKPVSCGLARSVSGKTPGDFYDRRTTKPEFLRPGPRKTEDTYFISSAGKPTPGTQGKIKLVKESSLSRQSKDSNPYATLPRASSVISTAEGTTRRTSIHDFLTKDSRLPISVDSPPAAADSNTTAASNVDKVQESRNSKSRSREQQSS
UniProt Q6PK04: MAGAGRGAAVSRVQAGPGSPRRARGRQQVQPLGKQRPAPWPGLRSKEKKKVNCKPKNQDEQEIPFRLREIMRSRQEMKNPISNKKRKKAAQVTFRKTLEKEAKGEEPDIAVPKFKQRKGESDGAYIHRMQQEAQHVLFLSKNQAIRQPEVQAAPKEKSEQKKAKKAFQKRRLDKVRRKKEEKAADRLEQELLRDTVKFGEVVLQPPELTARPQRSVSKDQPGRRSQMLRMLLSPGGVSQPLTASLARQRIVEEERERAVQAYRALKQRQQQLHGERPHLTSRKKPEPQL
UniProt Q9Y3X0: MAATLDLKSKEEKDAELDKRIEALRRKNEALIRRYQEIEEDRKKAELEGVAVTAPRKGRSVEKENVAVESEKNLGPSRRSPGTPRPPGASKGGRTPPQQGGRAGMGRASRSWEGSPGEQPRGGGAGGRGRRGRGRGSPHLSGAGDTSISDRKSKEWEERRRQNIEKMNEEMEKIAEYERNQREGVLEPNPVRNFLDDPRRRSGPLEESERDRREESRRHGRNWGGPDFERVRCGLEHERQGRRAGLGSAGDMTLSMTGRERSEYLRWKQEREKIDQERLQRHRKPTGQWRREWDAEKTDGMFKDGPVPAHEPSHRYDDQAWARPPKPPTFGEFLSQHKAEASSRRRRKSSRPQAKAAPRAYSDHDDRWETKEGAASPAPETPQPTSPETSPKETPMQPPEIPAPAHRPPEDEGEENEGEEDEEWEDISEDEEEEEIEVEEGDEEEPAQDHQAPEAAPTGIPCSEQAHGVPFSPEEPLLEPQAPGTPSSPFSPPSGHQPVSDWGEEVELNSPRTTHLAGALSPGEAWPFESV
UniProt Q6NZI2: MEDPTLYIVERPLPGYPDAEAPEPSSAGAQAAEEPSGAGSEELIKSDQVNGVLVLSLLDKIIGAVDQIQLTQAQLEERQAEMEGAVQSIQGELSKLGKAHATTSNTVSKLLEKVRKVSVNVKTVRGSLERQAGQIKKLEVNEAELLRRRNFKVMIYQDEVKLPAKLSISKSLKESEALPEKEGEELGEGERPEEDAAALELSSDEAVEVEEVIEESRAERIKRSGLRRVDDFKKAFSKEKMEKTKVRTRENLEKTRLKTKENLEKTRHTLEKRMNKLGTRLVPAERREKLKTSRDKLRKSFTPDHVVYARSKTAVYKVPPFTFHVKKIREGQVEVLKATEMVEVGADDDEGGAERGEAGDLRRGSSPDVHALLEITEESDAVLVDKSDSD
UniProt P55212: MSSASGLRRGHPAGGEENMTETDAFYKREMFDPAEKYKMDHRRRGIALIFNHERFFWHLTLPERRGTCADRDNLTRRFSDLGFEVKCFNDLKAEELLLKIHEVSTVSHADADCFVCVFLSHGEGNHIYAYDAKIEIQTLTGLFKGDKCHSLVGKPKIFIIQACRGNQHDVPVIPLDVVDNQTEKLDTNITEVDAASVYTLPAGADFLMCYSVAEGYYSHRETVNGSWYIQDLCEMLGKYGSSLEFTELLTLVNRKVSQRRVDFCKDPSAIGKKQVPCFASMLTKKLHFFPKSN
UniProt P42574: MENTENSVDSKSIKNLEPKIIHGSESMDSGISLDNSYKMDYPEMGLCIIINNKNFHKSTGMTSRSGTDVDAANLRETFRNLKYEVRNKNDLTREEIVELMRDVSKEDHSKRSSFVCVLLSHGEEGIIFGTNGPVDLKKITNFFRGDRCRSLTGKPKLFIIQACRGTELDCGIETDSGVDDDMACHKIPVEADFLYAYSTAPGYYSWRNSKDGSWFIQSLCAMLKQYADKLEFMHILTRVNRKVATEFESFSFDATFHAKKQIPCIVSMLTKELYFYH
UniProt O95400: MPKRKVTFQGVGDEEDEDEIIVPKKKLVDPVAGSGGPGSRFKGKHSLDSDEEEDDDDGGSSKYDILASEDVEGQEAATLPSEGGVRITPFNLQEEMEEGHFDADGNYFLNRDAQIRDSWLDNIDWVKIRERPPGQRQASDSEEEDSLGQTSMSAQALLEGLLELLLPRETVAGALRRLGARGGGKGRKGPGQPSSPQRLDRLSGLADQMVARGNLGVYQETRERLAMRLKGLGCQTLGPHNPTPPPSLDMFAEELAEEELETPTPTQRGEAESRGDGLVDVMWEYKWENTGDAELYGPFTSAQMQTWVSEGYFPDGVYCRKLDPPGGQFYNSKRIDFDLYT

How the values were obtained:
Assay in all cases: log2 fold change, soluble protein after heating vs DMSO (PISA); higher = thermal stabilisation; K562 lysate, 10 uM; active = over 0.2 and 3.5 SD of the protein, either way, in both replicates (recomputed)
vemurafenib = compound: CCCS(=O)(=O)Nc1ccc(F)c(C(=O)c2c[nH]c3ncc(-c4ccc(Cl)cc4)cc23)c1F [vemurafenib]
Summary of the method: (§1)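 Soluble protein was defined as the supernatant remaining after 21,000xg for 90 min, following pooling of heated aliquots and adjustment to 0.5% NP-40 at 4°C. Before that, crude K562 extract at 1 mg/mL protein in PBS pH 7.4 with 1 mM MgCl2 was treated with 10 μM compound for 30 min and heated for 3 min across 48°C-58°C. Quantification used TMTpro 16plex LC-MS/MS with channel sums equalised, and values are log-two fold changes in thermal stability relative to solvent controls from duplicates.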

[1] = compound: CCCS(=O)(=O)Nc1ccc(F)c(C(=O)c2c[nH]c3ncc(Cl)cc23)c1F
Summary of the method: as §1

barasertib = compound: CCN(CCCOc1ccc2c(Nc3cc(CC(=O)Nc4cccc(F)c4)[nH]n3)ncnc2c1)CCOP(=O)(O)O [barasertib]
Summary of the method: as §1

[2] = compound: CC[C@@H]1C(=O)N(C)c2cnc(Nc3ccc(C(=O)NC4CCN(C)CC4)cc3OC)nc2N1C1CCCC1
Summary of the method: as §1

volasertib = compound: CC[C@@H]1C(=O)N(C)c2cnc(Nc3ccc(C(=O)N[C@H]4CC[C@H](N5CCN(CC6CC6)CC5)CC4)cc3OC)nc2N1C(C)C [volasertib]
Summary of the method: as §1

[3] = compound: CCn1c(C(=O)N(C2CC2)C2CC2)cc2c3c(ncn3C)c(Nc3cc(C)n(C)n3)nc21
Summary of the method: as §1

[4] = compound: CCn1cc(-c2ccnc3[nH]c(-c4cccc(CN(C)C)c4)cc23)c(-c2ccc(NC(=O)N(C)C)cc2)n1
Summary of the method: as §1

[5] = compound: CN1CCC(CNc2ccc3ncc(-c4cccc(OC(F)(F)F)c4)n3n2)CC1
Summary of the method: as §1

saracatinib = compound: CN1CCN(CCOc2cc(OC3CCOCC3)c3c(Nc4c(Cl)ccc5c4OCO5)ncnc3c2)CC1 [saracatinib]
Summary of the method: as §1

sotrastaurin = compound: CN1CCN(c2nc(C3=C(c4c[nH]c5ccccc45)C(=O)NC3=O)c3ccccc3n2)CC1 [sotrastaurin]
Summary of the method: as §1

Measured: log2 fold change

CCNB2 (UniProt O95067)
inactive: vemurafenib 0.04 | [1] -0.008 | barasertib 0.06 | [2] 0.037 | volasertib -0.072 | [3] -0.059 | [4] -0.085 | [5] 0.011 | saracatinib 0.038 | sotrastaurin 0.078

CBR1 (UniProt P16152)
inactive: vemurafenib -0.009 | [1] 0.011 | barasertib -0.013 | [2] -0.019 | volasertib 0.004 | [3] 0 | [4] -0.096 | [5] 0.077 | saracatinib 0.037 | sotrastaurin -0.047

CD320 (UniProt Q9NPF0)
inactive: vemurafenib 0 | [1] -0.04 | barasertib 0.064 | [2] 0.02 | volasertib -0.014 | [3] 0.148 | [4] -0.069 | [5] 0.042 | saracatinib 0.027 | sotrastaurin 0.003

CARHSP1 (UniProt Q9Y2V2)
inactive: vemurafenib 0.032 | [1] -0.015 | barasertib 0.024 | [2] 0.033 | volasertib -0.024 | [3] -0.061 | [4] -0.02 | [5] 0.044 | saracatinib 0 | sotrastaurin -0.042

CD81 (UniProt P60033)
inactive: vemurafenib 0.092 | [1] -0.002 | barasertib -0.07 | [2] 0.125 | volasertib 0.058 | [3] 0.035 | [4] 0 | [5] 0.116 | saracatinib -0.041 | sotrastaurin 0.141

CCAR2 (UniProt Q8N163)
inactive: vemurafenib -0.007 | [1] -0.004 | barasertib -0.047 | [2] -0.01 | volasertib -0.031 | [3] 0.01 | [4] -0.057 | [5] 0.032 | saracatinib -0.002 | sotrastaurin 0.007

CASC4 (UniProt Q6P4E1)
inactive: vemurafenib 0 | [1] 0.02 | barasertib -0.02 | [2] 0.009 | volasertib 0.017 | [3] 0.022 | [4] -0.05 | [5] -0.008 | saracatinib -0.003 | sotrastaurin -0.004

CCDC86 (UniProt Q9H6F5)
inactive: vemurafenib -0.005 | [1] 0.01 | barasertib 0.009 | [2] 0.069 | volasertib -0.016 | [3] -0.03 | [4] -0.022 | [5] 0.021 | saracatinib 0.068 | sotrastaurin -0.014

CCT4 (UniProt P50991)
inactive: vemurafenib -0.015 | [1] -0.006 | barasertib -0.019 | [2] -0.063 | volasertib 0.002 | [3] 0.019 | [4] -0.002 | [5] 0.014 | saracatinib -0.011 | sotrastaurin -0.018

CCDC186 (UniProt Q7Z3E2)
inactive: vemurafenib -0.007 | [1] 0.069 | barasertib -0.029 | [2] 0.069 | volasertib 0.031 | [3] 0.019 | [5] -0.033 | saracatinib -0.003 | sotrastaurin -0.054
active: [4] 0.332

CCDC93 (UniProt Q567U6)
inactive: vemurafenib 0.021 | [1] 0.007 | barasertib 0.064 | [2] -0.021 | volasertib -0.038 | [3] 0.01 | [4] -0.011 | [5] 0.029 | saracatinib 0.042 | sotrastaurin 0.025

CAST isoform 6 (UniProt P20810)
inactive: vemurafenib 0.007 | [1] 0.005 | barasertib -0.035 | [2] 0.059 | volasertib 0.011 | [3] -0.037 | [4] 0.01 | [5] 0.009 | saracatinib -0.001 | sotrastaurin -0.019

Quoted at random: two entries already listed, in no set order.
CCAR2 (UniProt Q8N163)
inactive: vemurafenib -0.007 | [1] -0.004 | barasertib -0.047 | [2] -0.01 | volasertib -0.031 | [3] 0.01 | [4] -0.057 | [5] 0.032 | saracatinib -0.002 | sotrastaurin 0.007

CCNB2 (UniProt O95067)
inactive: vemurafenib 0.04 | [1] -0.008 | barasertib 0.06 | [2] 0.037 | volasertib -0.072 | [3] -0.059 | [4] -0.085 | [5] 0.011 | saracatinib 0.038 | sotrastaurin 0.078

(list continues)

CCS (UniProt O14618)
inactive: vemurafenib -0.031 | [1] -0.012 | barasertib 0.101 | [2] -0.053 | volasertib 0.01 | [3] 0.023 | [4] -0.051 | [5] 0.05 | saracatinib -0.005 | sotrastaurin 0.009

CCNK isoform 4 (UniProt O75909)
inactive: vemurafenib -0.013 | [1] 0.006 | barasertib -0.028 | [2] 0.04 | volasertib -0.009 | [3] -0.007 | [4] -0.185 | [5] 0.095 | saracatinib 0.049 | sotrastaurin 0.004

CCDC88A (UniProt Q3V6T2)
inactive: vemurafenib -0.031 | [1] -0.009 | barasertib 0.02 | [2] -0.045 | volasertib -0.02 | [3] 0.015 | [4] 0.015 | [5] -0.027 | saracatinib 0.005 | sotrastaurin 0.01

CCDC137 (UniProt Q6PK04)
inactive: vemurafenib -0.011 | [1] 0.046 | barasertib -0.019 | [2] 0.121 | volasertib -0.018 | [3] -0.016 | [4] 0.008 | [5] -0.035 | saracatinib -0.026 | sotrastaurin -0.046

CCDC22 (UniProt O60826)
inactive: vemurafenib -0.054 | [1] 0.026 | barasertib 0.052 | [2] -0.053 | volasertib -0.013 | [3] 0.026 | [4] -0.027 | [5] -0.01 | saracatinib 0.01 | sotrastaurin 0.028

CD59 isoform 2 (UniProt P13987)
inactive: vemurafenib 0.026 | [1] -0.05 | barasertib 0.08 | [2] 0.077 | volasertib -0.003 | [3] -0.007 | [4] -0.054 | [5] 0.007 | saracatinib -0.097 | sotrastaurin 0.089

CCNT1 (UniProt O60563)
inactive: vemurafenib -0.013 | [1] -0.016 | barasertib 0.036 | [2] -0.005 | volasertib -0.027 | [3] 0.009 | [4] -0.091 | [5] -0.014 | saracatinib 0.057 | sotrastaurin -0.005

CCDC9 (UniProt Q9Y3X0)
inactive: vemurafenib 0.003 | [1] -0.001 | barasertib -0.021 | [2] 0.066 | volasertib -0.007 | [3] -0.057 | [4] 0.054 | [5] 0.039 | saracatinib 0.001 | sotrastaurin 0.039

CCAR1 (UniProt Q8IX12)
inactive: vemurafenib -0.008 | [1] -0.012 | barasertib 0.015 | [2] -0.006 | volasertib -0.023 | [3] -0.004 | [4] -0.16 | [5] 0.015 | saracatinib 0.009 | sotrastaurin -0.021

CCDC6 (UniProt Q16204)
inactive: vemurafenib -0.015 | [1] 0.001 | barasertib -0.013 | [2] 0.037 | volasertib 0.034 | [3] 0.026 | [4] -0.035 | [5] 0.044 | saracatinib -0.008 | sotrastaurin -0.018

CAVIN1 (UniProt Q6NZI2)
inactive: vemurafenib 0.015 | [1] 0.019 | barasertib -0.006 | [2] 0.024 | volasertib 0 | [3] -0.016 | [4] 0 | [5] -0.052 | saracatinib 0.032 | sotrastaurin 0.01

CASP6 (UniProt P55212)
inactive: vemurafenib 0.006 | [1] -0.012 | barasertib -0.071 | [2] 0.018 | volasertib -0.017 | [3] 0.025 | [4] 0.242 | [5] 0.013 | saracatinib -0.004 | sotrastaurin -0.016

CASP3 (UniProt P42574)
active: [4] 0.279
inactive: vemurafenib 0.002 | [1] 0.015 | barasertib -0.024 | [2] 0.034 | volasertib 0.013 | [3] -0.011 | [5] -0.049 | saracatinib -0.036 | sotrastaurin -0.013

CBR4 (UniProt Q8N4T8)
inactive: vemurafenib 0.034 | [1] 0.051 | barasertib 0.018 | [2] 0.091 | volasertib -0.033 | [3] 0.008 | [4] 0.33 | [5] -0.021 | saracatinib -0.062 | sotrastaurin 0.017

CASP8 isoform 9 (UniProt Q14790)
inactive: vemurafenib -0.024 | [1] -0.002 | barasertib -0.017 | [2] -0.073 | volasertib -0.027 | [3] 0.038 | [4] 0.095 | [5] -0.061 | saracatinib 0.054 | sotrastaurin -0.018

CCPG1 isoform 5 (UniProt Q9ULG6)
inactive: vemurafenib 0.082 | [1] -0.038 | barasertib 0.034 | [2] 0.066 | volasertib 0 | [3] 0.071 | [4] -0.081 | [5] 0.04 | saracatinib 0.049 | sotrastaurin 0.051

CD2BP2 (UniProt O95400)
inactive: vemurafenib -0.005 | [1] 0.033 | barasertib 0.026 | [2] 0.007 | volasertib -0.004 | [3] -0.003 | [4] 0.169 | [5] -0.051 | saracatinib 0.005 | sotrastaurin -0.008

CASK (UniProt O14936)
inactive: vemurafenib -0.006 | [1] 0.058 | barasertib 0.033 | [2] 0.083 | volasertib 0.026 | [3] -0.006 | [4] 0.113 | [5] -0.008 | saracatinib -0.043 | sotrastaurin 0.016
